The other results are listed elsewhere or left out. Further columns of the screen follow, without active or inactive calls. Compounds called inactive in the main read-out are mostly missing here. The note in brackets gives the kind of curve behind each potency; many fits are weak.
Experiment: qHTS Assay for Lipid Storage Modulators in Drosophila S3 Cells;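 for cell number change: cells counted by Cell Tracker Red CMTPX staining in the red channel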
Conditions: BODIPY lipid droplet fluorescence, 18-24 h; for cell number change: measured here: cell count max response, cells fed with added oleic acid
Excerpt: NIH Molecular Libraries Probe Production Centers Network [MLPCN] NIH Chemical Genomics Center [NCGC] MLPCN Grant: 1 R03 MH085686-01 Assay Submitter (PI): Beller, Mathias; Max-Planck-Institut fur Biophysikalische Chemie NCGC Assay Overview: Storing lipids as a reservoir for energy or the anabolism of elementary metabolites is a common feature of probably all cells and is conserved from bacteria to humans. The universal cellular lipid storage organelle is the so-called lipid storage droplet (LD). Although ubiquitous, LDs share a simple structure composed of a hydrophobic core that harbors the storage lipids, which is shielded by a droplet-specific phospholipid monolayer to which proteins are attached. The current model of LD biogenesis involves an incorporation of the lipid core into the membrane leaflets of the endoplasmic reticulum (ER) followed by a subsequent budding-like maturation of a LD, which ultimately pinches off. Once released, LD volume can increase by localized lipogenesis or fusion of existing droplet. Storage lipids are re-mobilized enzymatically by lipase activity. Lipase regulation in the adipocyte is heavily studied and involves multiple components including catecholamine signaling, the LD-associated proteins Perilipin and comparative gene identification (CGI-58) and at least two lipases named hormone sensitive lipase (HSL) and adipocyte triglyceride lipase (ATGL). LD regulation outside of the adipocyte is poorly understood and only few components are known. However, there is an urgent need to learn more about ectopic fat depots as mislocalized storage of lipids, for example in the liver or muscle, is an eminent health problem associated with insulin resistance or the metabolic syndrome. We developed a laser-scanning cytometer assay to enable 1,536-well screening and combined the results of the small molecules screen with an RNAi database based on lipid storage.
Triacsin C (Sigma-Aldrich T-4540), an inhibitor of long-chain fatty acyl CoA synthetase that blocks synthesis of triglycerides, was used as a positive control for lipid under-storage. A total of 23 nL of compound solution of different concentrations were transferred to the assay plates using a Kalypsys pin tool equipped with a 1,536-pin array containing 10-nL slotted pins (FP1S10, 0.457-mm diameter, 50.8 mm long; V&P Scientific). One microliter of oleic acid (400 uM) was added, and the plate was lidded with stainless steel rubber gasket lined lids containing pinholes. […] Fluorescence was detected by excitation of the fluorophores with a 488-nm laser on an Acumen Explorer (TTP Lab Tech). The total intensity in channel 2 (500-530 nm) reflected lipid droplet accumulation. Cells were detected using channel 3 (575-640 nm) with 5-um width and 100-um depth filters. The ratio of the number of objects in PMT channel 2 over the number of objects in PMT channel 3 was also calculated. Percent activity was computed relative to an internal control (100% inhibited lipid droplet deposition due to the presence of 20 uM Triacsin C), which was added to 32 wells/plate.

[1] = measured here: lipid fluorescence (Fed channel) AC50, cells fed with added oleic acid
[2] = measured here: cell number channel AC50, cells fed with added oleic acid

Compound | cell number change [%] | AC50 [1] | AC50 [2]
O=C1Nc2ccccc2Nc2ncccc21 | -11 | – | –
COc1ccc(CN2CC(=O)N(c3ccc(Cl)cc3)C2=S)cc1OC | – | 6.51 µM [rising, single point] | –
Cc1cccc(-c2nc(CS(=O)CC(=O)NC(C)CCc3ccccc3)c(C)o2)c1 (configuration not stated) | – | – | 1.64 µM [rising, partial curve]
CS(=O)(=O)N1CCC(C(=O)NCc2ccco2)CC1 | -15.1 | 29.1 µM [falling, single point] | –
CC1=NNC(=O)C1CC(=O)N/N=C/C(Br)=C/c1ccccc1 (configuration not stated) | – | – | 0.82 µM [rising, partial curve, poor fit]
C=CCn1c(SCC(=O)NC(=O)Cc2ccccc2)nc2ccccc2c1=O | 17.4 | 32.6 µM [falling, single point] | –
O=C(Cn1ccc2ccccc2c1=O)NCCC(=O)Nc1ccc(F)cc1F | -2.86 | – | –
Cc1cc2c(c(=O)o1)C1O[C@](c3ccsc3)(Cc3cc(C#N)ccc31)O2 | 17.2 | – | –
NS(=O)(=O)c1ccc(-n2cccc2C=O)cc1 | 10.5 | 18.4 µM [falling, partial curve] | –
C=CCNC(=O)c1onc(CSc2cccc(OC)c2)c1C(=O)NCC=C | 9.67 | 0.0259 µM [rising, full curve, poor fit] | –
CC(=O)Oc1ccc(-c2csc(Nc3ccc(Cl)cn3)n2)cc1 | -53 | 2.91 µM [falling, single point] | 20.6 µM [falling, partial curve]
N#Cc1ccsc1NC(=O)CCc1ccccc1 | 28.1 | 5.8 µM [rising, full curve] | –
CCOC(=O)c1[nH]c2ccc(OC)cc2c1NC(=O)c1nonc1C | -20.4 | – | –
CCOC(=O)c1sc(NC(=O)CCc2ccc(OC)cc2)nc1C | -1.32 | – | –
O=S(=O)(c1ccc(F)cc1)c1nc(-c2ccco2)oc1Nc1ccccc1 | 12.9 | 1.84 µM [rising, partial curve] | 0.206 µM [falling, full curve, poor fit]
CCC(C)NC(=O)C1CCN(S(=O)(=O)c2cc([N+](=O)[O-])ccc2Cl)CC1 (configuration not stated) | 9.36 | 29.1 µM [rising, single point] | –
O=C(COC(=O)Cn1cc(C(F)(F)F)ccc1=O)Nc1ccc(Br)cc1F | -15.3 | – | –
CCc1ccc(NC(=O)C(NS(=O)(=O)c2ccc3c(c2)CCN3C(C)=O)C(C)C)cc1 (configuration not stated) | 34.2 | 29.1 µM [falling, single point] | 29.1 µM [rising, single point]
O=C(CCNC(=O)c1ccccc1Cl)Nc1cccc(S(=O)(=O)N2CCOCC2)c1 | -3.89 | 0.82 µM [falling, full curve] | –

Another view of two compounds above:
Compound,cell number change [%],AC50 [1],AC50 [2]
COc1ccc(CN2CC(=O)N(c3ccc(Cl)cc3)C2=S)cc1OC,–,"6.51 µM [rising, single point]",–
O=C(COC(=O)Cn1cc(C(F)(F)F)ccc1=O)Nc1ccc(Br)cc1F,-15.3,–,–

— PubChem BioAssay AID2685 (National Center for Advancing Translational Sciences (NCATS), 2010)
